Binding data for 2 molecules are collected here from paper PMC7182230.

Amino acid sequences for entries named in this document (tags omitted). A change or cut given only in a name is not applied to a line headed by its entry. Residues count along the entry.
UniProt Q08345: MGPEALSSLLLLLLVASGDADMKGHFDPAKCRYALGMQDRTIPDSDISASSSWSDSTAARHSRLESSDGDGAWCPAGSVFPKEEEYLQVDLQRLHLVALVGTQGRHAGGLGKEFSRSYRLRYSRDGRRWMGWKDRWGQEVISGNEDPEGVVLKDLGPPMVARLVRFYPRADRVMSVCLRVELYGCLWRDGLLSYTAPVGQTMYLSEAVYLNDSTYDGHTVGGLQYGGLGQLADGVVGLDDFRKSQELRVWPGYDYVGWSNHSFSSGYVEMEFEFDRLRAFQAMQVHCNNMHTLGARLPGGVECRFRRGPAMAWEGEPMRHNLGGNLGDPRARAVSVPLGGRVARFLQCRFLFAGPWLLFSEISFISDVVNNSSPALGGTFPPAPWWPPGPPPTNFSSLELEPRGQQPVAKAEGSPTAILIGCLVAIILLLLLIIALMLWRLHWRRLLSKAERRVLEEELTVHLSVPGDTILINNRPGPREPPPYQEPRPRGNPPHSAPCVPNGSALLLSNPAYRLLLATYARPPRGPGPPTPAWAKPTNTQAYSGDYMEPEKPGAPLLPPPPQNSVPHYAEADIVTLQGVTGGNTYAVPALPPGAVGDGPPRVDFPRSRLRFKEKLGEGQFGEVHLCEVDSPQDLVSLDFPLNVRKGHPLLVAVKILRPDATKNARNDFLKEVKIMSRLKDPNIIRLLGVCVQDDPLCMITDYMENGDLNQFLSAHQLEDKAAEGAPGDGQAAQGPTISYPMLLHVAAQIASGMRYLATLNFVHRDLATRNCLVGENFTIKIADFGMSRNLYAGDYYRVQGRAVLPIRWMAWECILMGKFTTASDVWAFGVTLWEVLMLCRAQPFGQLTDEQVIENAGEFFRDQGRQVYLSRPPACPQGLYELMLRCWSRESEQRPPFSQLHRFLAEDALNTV
DDR1-Fc fusion protein: residues 21-417 of Q08345

Results are given in words; binding and its absence hold for the method and conditions named. Binding seen in cells or lysates may run through a third protein. Some results given as binding are weak or reduced against the parent protein; the word gives no strength.

The target of assay [1] is discoidin domain receptor-1 (DDR1), endogenous in primary human OA chondrocytes (human (endogenous in primary OA chondrocytes)) (UniProt Q08345). Briefly: co-IP; primary human OA chondrocytes, endogenous proteins; immunoprecipitation with anti-Postn and anti-DDR1 antibodies, Western blot. In general terms: Immunoblotting shows a protein as a band on a membrane.
The target in assay [2] is DDR1-Fc fusion protein (human) (UniProt Q08345). Nature of the assay: co-IP; C28/I2 cells transfected with DDR1-Fc and human Postn cDNA, lysed in RIPA buffer after 24-48 h; 1 mg extract with Protein A & G Sepharose and anti-Postn, anti-DDR1 or control IgG for 24 h at 4 C; Western blot.
Assay [3] concerns the target T1, discoidin domain receptor 2 (DDR2) in C28/I2 cells (human (endogenous in C28/I2)) (UniProt Q16832).
T1 sequence: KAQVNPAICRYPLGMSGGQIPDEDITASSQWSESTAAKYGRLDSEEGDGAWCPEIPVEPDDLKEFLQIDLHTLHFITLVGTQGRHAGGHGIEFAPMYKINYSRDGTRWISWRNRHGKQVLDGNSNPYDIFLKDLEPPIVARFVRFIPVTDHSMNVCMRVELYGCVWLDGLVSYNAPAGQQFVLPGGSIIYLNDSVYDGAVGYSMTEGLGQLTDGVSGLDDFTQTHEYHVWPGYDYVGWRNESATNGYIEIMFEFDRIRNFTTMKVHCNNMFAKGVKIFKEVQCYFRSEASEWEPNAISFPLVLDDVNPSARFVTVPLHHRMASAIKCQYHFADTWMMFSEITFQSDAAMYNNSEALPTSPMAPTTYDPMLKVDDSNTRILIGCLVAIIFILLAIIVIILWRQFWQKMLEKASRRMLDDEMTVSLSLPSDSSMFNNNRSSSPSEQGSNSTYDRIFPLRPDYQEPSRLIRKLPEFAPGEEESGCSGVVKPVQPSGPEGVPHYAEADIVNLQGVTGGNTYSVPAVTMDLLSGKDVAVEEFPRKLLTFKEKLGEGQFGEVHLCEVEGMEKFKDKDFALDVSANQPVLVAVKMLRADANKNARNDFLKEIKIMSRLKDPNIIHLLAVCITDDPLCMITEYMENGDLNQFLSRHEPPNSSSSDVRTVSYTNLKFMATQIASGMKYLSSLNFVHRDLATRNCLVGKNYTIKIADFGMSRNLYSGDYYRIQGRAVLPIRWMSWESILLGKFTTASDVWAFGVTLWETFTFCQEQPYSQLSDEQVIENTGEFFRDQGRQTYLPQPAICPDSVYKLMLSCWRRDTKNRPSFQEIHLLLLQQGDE
Described as above.

B1: periostin (Postn), endogenous in primary human OA chondrocytes (protein, UniProt Q15063 22-836)
chain: NNHYDKILAHSRIRGRDQGPNVCALQQILGTKKKYFSTCKNWYKKSICGQKTTVLYECCPGYMRMEGMKGCPAVLPIDHVYGTLGIVGATTTQRYSDASKLREEIEGKGSFTYFAPSNEAWDNLDSDIRRGLESNVNVELLNALHSHMINKRMLTKDLKNGMIIPSMYNNLGLFINHYPNGVVTVNCARIIHGNQIATNGVVHVIDRVLTQIGTSIQDFIEAEDDLSSFRAAAITSDILEALGRDGHFTLFAPTNEAFEKLPRGVLERIMGDKVASEALMKYHILNTLQCSESIMGGAVFETLEGNTIEIGCDGDSITVNGIKMVNKKDIVTNNGVIHLIDQVLIPDSAKQVIELAGKQQTTFTDLVAQLGLASALRPDGEYTLLAPVNNAFSDDTLSMDQRLLKLILQNHILKVKVGLNELYNGQILETIGGKQLRVFVYRTAVCIENSCMEKGSKQGRNGAIHIFREIIKPAEKSLHEKLKQDKRFSTFLSLLEAADLKELLTQPGDWTLFVPTNDAFKGMTSEEKEILIRDKNALQNIILYHLTPGVFIGKGFEPGVTNILKTTQGSKIFLKEVNDTLLVNELKSKESDIMTTNGVIHVVDKLLYPADTPVGNDQLLEILNKLIKYIQIKFVRGSTFKEIPVTVYTTKIITKVVEPKIKVIEGSLQPIIKTEGPTLTKVKIEGEPEFRLIKEGETITEVIHGEPIIKKYTKIIDGVPVEITEKETREERIITGPEIKYTRISTGGGETEETLKKLLQEEVTKVTKFIEGGDGHLFEDEEIKRLLQGDTPVRKLQANKKVQGSRRRLREGRSQ
Regarding B1, the binding entry in assay [1] is on record as “binds”.

B2: human periostin (Postn), full-length cDNA transfected into C28/I2 cells (protein, UniProt Q15063 22-836)
chain: NNHYDKILAHSRIRGRDQGPNVCALQQILGTKKKYFSTCKNWYKKSICGQKTTVLYECCPGYMRMEGMKGCPAVLPIDHVYGTLGIVGATTTQRYSDASKLREEIEGKGSFTYFAPSNEAWDNLDSDIRRGLESNVNVELLNALHSHMINKRMLTKDLKNGMIIPSMYNNLGLFINHYPNGVVTVNCARIIHGNQIATNGVVHVIDRVLTQIGTSIQDFIEAEDDLSSFRAAAITSDILEALGRDGHFTLFAPTNEAFEKLPRGVLERIMGDKVASEALMKYHILNTLQCSESIMGGAVFETLEGNTIEIGCDGDSITVNGIKMVNKKDIVTNNGVIHLIDQVLIPDSAKQVIELAGKQQTTFTDLVAQLGLASALRPDGEYTLLAPVNNAFSDDTLSMDQRLLKLILQNHILKVKVGLNELYNGQILETIGGKQLRVFVYRTAVCIENSCMEKGSKQGRNGAIHIFREIIKPAEKSLHEKLKQDKRFSTFLSLLEAADLKELLTQPGDWTLFVPTNDAFKGMTSEEKEILIRDKNALQNIILYHLTPGVFIGKGFEPGVTNILKTTQGSKIFLKEVNDTLLVNELKSKESDIMTTNGVIHVVDKLLYPADTPVGNDQLLEILNKLIKYIQIKFVRGSTFKEIPVTVYTTKIITKVVEPKIKVIEGSLQPIIKTEGPTLTKVKIEGEPEFRLIKEGETITEVIHGEPIIKKYTKIIDGVPVEITEKETREERIITGPEIKYTRISTGGGETEETLKKLLQEEVTKVTKFIEGGDGHLFEDEEIKRLLQGDTPVRKLQANKKVQGSRRRLREGRSQ
On to B2, for which the binding result in assay [2] is “binds”; in assay [3], “no binding”.
